Test results reported in patent US9403894B2, “Glucagon analogues” (Zealand Pharma A/S, priority 2010, dated 2016).

Protein sequences, listed by entry. Tags and fused reporters are not part of them. Residues count along the entry.
UniProt P47871, 26-477: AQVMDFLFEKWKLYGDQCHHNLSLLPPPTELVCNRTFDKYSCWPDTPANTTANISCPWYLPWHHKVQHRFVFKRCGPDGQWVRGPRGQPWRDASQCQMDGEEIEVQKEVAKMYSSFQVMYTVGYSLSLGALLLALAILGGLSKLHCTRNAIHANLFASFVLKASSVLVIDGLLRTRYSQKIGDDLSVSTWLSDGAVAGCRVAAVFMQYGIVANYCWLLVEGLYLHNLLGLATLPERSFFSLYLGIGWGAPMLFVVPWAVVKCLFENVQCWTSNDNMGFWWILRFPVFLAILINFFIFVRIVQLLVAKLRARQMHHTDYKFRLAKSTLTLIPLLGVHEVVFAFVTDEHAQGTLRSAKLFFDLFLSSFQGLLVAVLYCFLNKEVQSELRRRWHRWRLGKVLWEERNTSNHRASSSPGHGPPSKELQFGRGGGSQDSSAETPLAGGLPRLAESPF

Molecular target: T1, human Glucagon-R (Homo sapiens, UniProt P47871)
T1 construct: expressed in transfected cells
Experiment: Glucagon receptor efficacy assay (cAMP) in HEK293 cells expressing human Glucagon-R
Type: cell-based
Description: The DNA encoding the Glucagon-R or the GLP-1-R was amplified by PCR using primers encoding terminal restriction sites for subcloning. The 5′-end primers additionally encoded a near Kozak consensus sequence to ensure efficient translation. The fidelity of the DNA encoding the Glucagon-R and the GLP-1-R was confirmed by DNA sequencing. The PCR products encoding the Glucagon-R or the GLP-1-R were subcloned into a mammalian expression vector containing a neomycin (G418) resistance marker. The mammalian expression vectors encoding the Glucagon-R or the GLP-1-R were transfected into HEK293 cells by a standard calcium phosphate transfection method. 48 hr after transfection cells were seeded for limited dilution cloning and selected with 1 mg/ml G418 in the culture medium. […] One Glucagon-R expressing clone and one GLP-1-R expressing clone were chosen for compound profiling.
On the day of analysis, growth medium was removed and the cells washed once with 200 μl Tyrode buffer. Cells were incubated in 100 μl Tyrode buffer containing increasing concentrations of test peptides, 100 μM IBMX, and 6 mM glucose for up 15 min at 37° C. The reaction was stopped by addition of 25 μl 0.5 M HCl and incubated on ice for 60 min.

Q: For `CCCCCCCCCCCCCCCC(=O)N[C@@H](CCC(=O)NCCCC[C@H](NC(=O)[C@H](CCC(=O)O)NC(=O)[C@H](CC(=O)O)NC(=O)[C@H](CC(C)C)NC(=O)[C@H](Cc1ccc(O)cc1)NC(=O)[C@H](CCCCN)NC(=O)[C@H](CO)NC(=O)[C@H](Cc1ccc(O)cc1)NC(=O)[C@H](CC(=O)O)NC(=O)[C@H](CO)NC(=O)[C@@H](NC(=O)[C@H](Cc1ccccc1)NC(=O)[C@@H](NC(=O)CNC(=O)[C@H](CCC(N)=O)NC(=O)[C@H](CO)NC(=O)[C@@H](N)Cc1c[nH]cn1)[C@@H](C)O)[C@@H](C)O)C(=O)N[C@@H](CCCNC(=N)N)C(=O)N[C@@H](C)C(=O)N[C@@H](CCCCN)C(=O)N[C@@H](CC(=O)O)C(=O)N[C@@H](Cc1ccccc1)C(=O)N[C@H](C(=O)N[C@@H](CCC(=O)O)C(=O)N[C@@H](Cc1c[nH]c2ccccc12)C(=O)N[C@@H](CC(C)C)C(=O)N[C@@H](CC(C)C)C(=O)N[C@@H](CO)C(=O)N[C@@H](C)C(N)=O)[C@@H](C)CC)C(=O)O` [Compound 6], which EC50 is on record?
A: The EC50 was 160 pM.
